Test results as given in the supplement of paper PMC8728848.
Some of the results follow.

Experiments:
Assay in all cases: glycan array binding signal (z-score within array); higher = stronger binding
Details in all cases: glycan notation: IUPAC condensed, linker removed
[1] = target: GlcNAc(b1-3)Gal(b1-4)Glc
Outline: (§1)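 Negative Z-scores can be read as non-binding. The Z-score is calculated within each array and then averaged across arrays of one protein sequence at different concentrations or buffers and across linkers. Arrays, 3228 in all, were curated from the Consortium for Functional Glycomics database and kept only where the protein sequence was available.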

[2] = target: GlcNAc(b1-3)Gal(b1-4)GlcNAc
Outline: as §1

[3] = target: GlcNAc(b1-3)Gal(b1-4)GlcNAc(b1-3)Gal(b1-4)GlcNAc
Outline: as §1

[4] = target: GlcNAc(b1-3)GalNAc
Outline: as §1

[5] = target: GlcNAc(b1-3)Man
Outline: as §1

[6] = target: GlcNAc(b1-3)[GlcNAc(b1-4)][GlcNAc(b1-6)]GlcNAc
Outline: as §1

[7] = target: GlcNAc(b1-3)[GlcNAc(b1-6)]Gal(b1-4)GlcNAc
Outline: as §1

[8] = target: GlcNAc(b1-3)[GlcNAc(b1-6)]GalNAc
Outline: as §1

[9] = target: GlcNAc(b1-4)Gal(b1-4)GlcNAc
Outline: as §1

[10] = target: GlcNAc(b1-4)GlcNAc
Outline: as §1

[11] = target: GlcNAc(b1-4)GlcNAc(b1-4)GlcNAc
Outline: as §1

[12] = target: GlcNAc(b1-4)GlcNAc(b1-4)GlcNAc(b1-4)GlcNAc(b1-4)GlcNAc
Outline: as §1

[13] = target: GlcNAc(b1-4)GlcNAc(b1-4)GlcNAc(b1-4)GlcNAc(b1-4)GlcNAc(b1-4)GlcNAc
Outline: as §1

[14] = target: GlcNAc(b1-4)[GlcNAc(b1-6)]GalNAc
Outline: as §1

[15] = target: GlcNAc(b1-6)Gal(b1-4)GlcNAc
Outline: as §1

[16] = target: GlcNAc(b1-6)GalNAc
Outline: as §1

[17] = target: GlcNAc3Prop(b1-4)GlcNAc
Outline: as §1

[18] = target: GlcNAc6S(b1-3)Gal(b1-4)GlcNAc
Outline: as §1

[19] = target: Kdn(a2-3)Gal(b1-3)GalNAc
Outline: as §1

[20] = target: Kdn(a2-3)Gal(b1-3)GlcNAc
Outline: as §1

[21] = target: Kdn(a2-3)Gal(b1-4)Glc
Outline: as §1

[22] = target: Kdn(a2-3)Gal(b1-4)GlcNAc
Outline: as §1

[23] = target: Kdn(a2-3)Gal(b1-4)[Fuc(a1-3)]GlcNAc
Outline: as §1

[24] = target: Kdn(a2-6)Gal(b1-4)GlcNAc
Outline: as §1

[25] = target: Man(a1-2)Man(a1-2)Man(a1-3)Man
Outline: as §1

[26] = target: Man(a1-2)Man(a1-2)Man(a1-6)[Man(a1-3)]Man
Outline: as §1

[27] = target: Man(a1-2)Man(a1-3)Man
Outline: as §1

[28] = target: Man(a1-2)Man(a1-3)[Man(a1-2)Man(a1-6)]Man
Outline: as §1

[29] = target: Man(a1-2)Man(a1-3)[Man(a1-2)Man(a1-6)]Man(a1-6)[Man(a1-2)Man(a1-2)Man(a1-3)]Man
Outline: as §1

[30] = target: Man(a1-2)Man(a1-3)[Man(a1-2)Man(a1-6)]Man(a1-6)[Man(a1-2)Man(a1-2)Man(a1-3)]Man(b1-4)GlcNAc(b1-4)GlcNAc
Outline: as §1

[31] = target: Man(a1-2)Man(a1-3)[Man(a1-6)]Man(a1-6)[Man(a1-2)Man(a1-3)]Man(b1-4)GlcNAc(b1-4)GlcNAc
Outline: as §1

[32] = target: Man(a1-2)Man(a1-6)[Man(a1-3)]Man(a1-6)[Man(a1-2)Man(a1-2)Man(a1-3)]Man
Outline: as §1

[33] = target: Man(a1-2)Man(a1-6)[Man(a1-3)]Man(a1-6)[Man(a1-2)Man(a1-2)Man(a1-3)]Man(b1-4)GlcNAc(b1-4)GlcNAc
Outline: as §1

[34] = target: Man(a1-3)[Man(a1-6)]Man
Outline: as §1

[35] = target: Man(a1-3)[Man(a1-6)]Man(a1-6)[Man(a1-2)Man(a1-3)]Man(b1-4)GlcNAc(b1-4)GlcNAc
Outline: as §1

[36] = target: Man(a1-3)[Man(a1-6)]Man(a1-6)[Man(a1-3)]Man
Outline: as §1

[37] = target: Man(a1-3)[Man(a1-6)]Man(a1-6)[Man(a1-3)]Man(b1-4)GlcNAc(b1-4)GlcNAc
Outline: as §1

[38] = target: Man(a1-3)[Man(a1-6)]Man(b1-4)GlcNAc(b1-4)GlcNAc
Outline: as §1

[39] = target: Man(a1-6)Man
Outline: as §1

[40] = target: Man(b1-4)GlcNAc
Outline: as §1

[41] = target: Neu5Ac(a2-3)Gal
Outline: as §1

[42] = target: Neu5Ac(a2-3)Gal(b1-3)GalNAc
Outline: as §1

[43] = target: Neu5Ac(a2-3)Gal(b1-3)GalNAc(b1-3)Gal(a1-4)Gal(b1-4)Glc
Outline: as §1

[44] = target: Neu5Ac(a2-3)Gal(b1-3)GalNAc(b1-4)[Neu5Ac(a2-3)]Gal(b1-4)Glc
Outline: as §1

[45] = target: Neu5Ac(a2-3)Gal(b1-3)GalNAc(b1-4)[Neu5Ac(a2-8)Neu5Ac(a2-3)]Gal(b1-4)Glc
Outline: as §1

B1: Flo11 (Saccharomyces cerevisiae), P08640 (protein)
chain: MQRPFLLAYLVLSLLFNSALGFPTALVPRGSSEGTSCNSIVNGCPNLDFNWHMDQQNIMQYTLDVTSVSWVQDNTYQITIHVKGKENIDLKYLWSLKIIGVTGPKGTVQLYGYNENTYLIDNPTDFTATFEVYATQDVNSCQVWMPNFQIQFEYLQGSAAQYASSWQWGTTSFDLSTGCNNYDNQGHSQTDFPGFYWNIDCDNNCGGTKSSTTTSSTSESSTTTSSTSESSTTTSSTSESSTTTSSTSESSTSSSTTAPATPTTTSCTKEKPTPPTTTSCTKEKPTPPHHDTTPCTKKKTTTSKTCTKKTTTPVPTPSSSTTESSSAPVPTPSSSTTESSSAPVTSSTTESSSAPVPTPSSSTTESSSAPVTSSTTESSSAPVTSSTTESSSAPVPTPSSSTTESSSAPVTSSTTESSSAPVTSSTTESSSAPVTSSTTESSSAPVTSSTTESSSAPVPTPSSSTTESSSAPVTSSTTESSSAPVPTPSSSTTESSSAPVTSSTTESSSAPVPTPSSSTTESSSAPAPTPSSSTTESSSAPVTSSTTESSSAPVPTPSSSTTESSSTPVTSSTTESSSAPVPTPSSSTTESSSAPVPTPSSSTTESSSAPAPTPSSSTTESSSAPVTSSTTESSSAPVPTPSSSTTESSSAPVPTPSSSTTESSSAPVPTPSSSTTESSSAPVTSSTTESSSAPVTSSTTESSSAPVPTPSSSTTESSSAPVPTPSSSTTESSSAPVPTPSSSTTESSSAPVTSSTTESSSAPVPTPSSSTTESSSAPVPTPSSSTTESSSAPVPTPSSSTTESSVAPVPTPSSSSNITSSAPSSTPFSSSTESSSVPVPTPSSSTTESSSAPVSSSTTESSVAPVPTPSSSSNITSSAPSSIPFSSTTESFSTGTTVTPSSSKYPGSQTETSVSSTTETTIVPTKTTTSVTTPSTTTITTTVCSTGTNSAGETTSGCSPKTVTTTVPTTTTTSVTTSSTTTITTTVCSTGTNSAGETTSGCSPKTITTTVPCSTSPSETASESTTTSPTTPVTTVVSTTVVTTEYSTSTKPGGEITTTFVTKNIPTTYLTTIAPTPSVTTVTNFTPTTITTTVCSTGTNSAGETTSGCSPKTVTTTVPCSTGTGEYTTEATTLVTTAVTTTVVTTESSTGTNSAGKTTTGYTTKSVPTTYVTTLAPSAPVTPATNAVPTTITTTECSAATNAAGETTSVCSAKTIVSSASAGENTAPSATTPVTTAIPTTVITTESSVGTNSAGETTTGYTTKSIPTTYITTLIPGSNGAKNYETVATATNPISIKTTSQLATTASASSVAPVVTSPSLTGPLQSASGSAVATYSVPSISSTYQGAANIKVLGNFMWLLLALPVVF
glycan array binding signal (z-score) [1]: -1.46 | glycan array binding signal (z-score) [2]: 0.267 | glycan array binding signal (z-score) [3]: 0.303 | glycan array binding signal (z-score) [4]: 0.245 | glycan array binding signal (z-score) [5]: 0.315 | glycan array binding signal (z-score) [6]: 0.096 | glycan array binding signal (z-score) [7]: -0.167 | glycan array binding signal (z-score) [8]: -0.35 | glycan array binding signal (z-score) [9]: -0.74 | glycan array binding signal (z-score) [10]: -0.781 | glycan array binding signal (z-score) [11]: -0.791 | glycan array binding signal (z-score) [12]: -0.764 | glycan array binding signal (z-score) [13]: -0.436 | glycan array binding signal (z-score) [14]: 0.51 | glycan array binding signal (z-score) [15]: 0.507 | glycan array binding signal (z-score) [16]: -0.005 | glycan array binding signal (z-score) [17]: -0.021 | glycan array binding signal (z-score) [18]: 0.614 | glycan array binding signal (z-score) [19]: -0.649 | glycan array binding signal (z-score) [20]: -0.123 | glycan array binding signal (z-score) [21]: -0.682 | glycan array binding signal (z-score) [22]: 0.495 | glycan array binding signal (z-score) [23]: -0.53 | glycan array binding signal (z-score) [24]: 0.117 | glycan array binding signal (z-score) [25]: 7.09 | glycan array binding signal (z-score) [26]: -0.722 | glycan array binding signal (z-score) [27]: -0.508 | glycan array binding signal (z-score) [28]: -0.669 | glycan array binding signal (z-score) [29]: 0.07 | glycan array binding signal (z-score) [30]: -0.63 | glycan array binding signal (z-score) [31]: 0.278 | glycan array binding signal (z-score) [32]: -1.06 | glycan array binding signal (z-score) [33]: -1.08 | glycan array binding signal (z-score) [34]: 0.186 | glycan array binding signal (z-score) [35]: 1.5 | glycan array binding signal (z-score) [36]: -0.88 | glycan array binding signal (z-score) [37]: -0.897 | glycan array binding signal (z-score) [38]: -0.615 | glycan array binding signal (z-score) [39]: -0.924 | glycan array binding signal (z-score) [40]: -0.041 | glycan array binding signal (z-score) [41]: -0.476 | glycan array binding signal (z-score) [42]: -0.731 | glycan array binding signal (z-score) [43]: -0.861 | glycan array binding signal (z-score) [44]: 0.155 | glycan array binding signal (z-score) [45]: 0.779
